# Results from patent US6068838A, “Purified multimerase” (Baxter Aktiengesellschaft, priority 1996, dated 2000).
# Tested on: vWF
# Assay: pH optimum of vWF degradation by the activated protease
# Format: biochemical, human
substance,measurement,setting,value
"protease: von Willebrand factor cleaving protease purified from human plasma, named multimerase; converts singlet vWF to satellite structure",pH of highest activity,barium-activated protease (10 mM barium chloride),~8 pH
same,pH optimum for vWF degradation,calcium-activated protease (10 mM calcium chloride),9 to 10 pH
